These are literature values, as cited in US4358458A, “Tertiary imidazolyl alcohols and method for the treatment of generalized and local infections caused by fungi and yeasts” (Nordmark-Werke GmbH, priority 1976, dated 1982).

The conditions of the data set: (Lit.); cited from earlier work.

Regarding `Clc1ccc(COC(Cn2ccnc2)c2ccc(Cl)cc2Cl)c(Cl)c1.O=[N+]([O-])O` (stereo not drawn) [MICONAZOL, 1-[2,4-dichloro-β-(2,4-dichlorobenzyloxy)-phenethyl]imidazole nitrate, reference compound], the “LD50 (mice)” value is 578 mg/kg.
